Source: PubChem BioAssay AID493014 (National Center for Advancing Translational Sciences (NCATS), 2011)
This is one part of the list. Further columns of the screen follow, without active or inactive calls. The list favours compounds with an active or inconclusive main result. Words in brackets tell the shape of the fitted curve; partial curves, single points and poor fits give uncertain potencies.

Assay: qHTS Assay to Find Inhibitors of Chronic Active B-Cell Receptor Signaling
Conditions: ABC-DLBCL IkBa-CBG/CBR reporter, luminescence ratio (green luciferase fused to IkBa over red control in TMD8 lymphoma cells), 4 h
In short: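 TMD8 human ABC-DLBCL cells with doxycycline-inducible IκBα–green luciferase fusion and unfused red luciferase, in 0.5% FBS medium; compounds up to 46 uM, 4 h at 37C. Green/red luminescence ratio, filter-overlap corrected, fitted to concentration-response curves.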

[1] = measured here: CBR red luminescence, cell number
[2] = measured here: IkBa-CBG green luminescence

| SMILES | AC50 [1] | AC50 [2] |
| --- | --- | --- |
| CCCCNC(=O)C(c1ccc(OCC(=O)OC)c(C(=O)OC)c1)N(CCOC)C(=O)CCCCCN1C(=O)NC(c2ccc(-c3ccccc3)cc2)C(C(=O)OCc2ccccc2)=C1C (configuration not stated) | 7.94 µM [falling, partial curve] | 7.94 µM [rising, partial curve, poor fit] |
| Cc1nc(NC(=O)c2ccc(F)cc2)nc2cc3c(cc12)OCO3 | 20 µM [falling, single point] |  |
| CCc1ccc2nc3nc(C)cc(C)c3c(N)c2c1 | 10 µM [falling, partial curve, poor fit] |  |
| CCOC(=O)C(=NC(C)(C)C)NNc1cc(Cl)ccc1Cl | 5.8 µM [rising, partial curve] |  |
| CCN(CC)C(=O)c1n[nH]c(=O)c2ccccc12 | 10.3 µM [rising, partial curve] |  |
| Cc1nc2ccccc2c2c1C(=O)N(c1ccc(C(=O)O)cc1)C2=O | 10 µM [falling, partial curve] |  |
| CCCc1nc(N)c(C#N)c(-c2ccco2)c1CC | 0.366 µM [falling, full curve] |  |
| Cc1ccc(C(=O)Nc2nc(=O)n(C)s2)cc1 | 7.94 µM [falling, partial curve] |  |
| COc1ccc2oc(=O)c(-c3csc(Nc4ccc(O)cc4)n3)cc2c1 | 13 µM [falling, partial curve] | 29.1 µM [rising, single point] |
| CC[n+]1c(/C=C/c2ccc(OC)c(OC)c2)ccc2ccccc21 | 10 µM [rising, partial curve] |  |
| CN1CC(=O)N(CC(=O)Nc2ccc(SC(F)F)cc2)C1=O | 11.2 µM [rising, single point] |  |
| O=C(CO/N=C/c1ccc(Cl)cc1Cl)NNC(=O)c1ccc(Cl)cc1Cl | 35.5 µM [rising, single point] |  |
| COC(=O)C1CCCN1C(=O)COc1ccc(Br)cc1Cl (configuration not stated) | 29.1 µM [rising, single point] |  |
| Brc1ccc(CNCc2cccs2)cc1 | 18.4 µM [rising, single point] |  |
| CCC(C)C(NC(=O)CCC(=O)OCC(=O)[C@@]1(O)CCC2[C@@H]3CCC4=CC(=O)C=C[C@]4(C)C3[C@@H](O)C[C@@]21C)C(=O)O (some centres not stated) |  | 1.41 µM [falling, partial curve, poor fit] |
| Cc1ccccc1OCc1nc(-c2ccc(NC(=O)c3ccc4c(c3)OCO4)cc2)no1 | 0.501 µM [falling, full curve, poor fit] |  |
| COc1ccc(C)cc1NC(=O)NNC(=O)c1ccoc1C | 35.5 µM [rising, single point] |  |
| CCOC(=O)[C@H]1[C@H]2COc3cc(OC)ccc3[C@@H]2N2C(=O)CN(Cc3ccc(C)cc3)C(=O)[C@@]12C | 0.00411 µM [rising, full curve, poor fit] |  |
| COc1ccc(C(=O)NCC(=O)N/N=C/C=C/c2ccccc2)cc1OC | 22.4 µM [rising, single point] |  |

In the list so far, these have bromine:

| SMILES | AC50 [1] | AC50 [2] |
| --- | --- | --- |
| COC(=O)C1CCCN1C(=O)COc1ccc(Br)cc1Cl (configuration not stated) | 29.1 µM [rising, single point] |  |
| Brc1ccc(CNCc2cccs2)cc1 | 18.4 µM [rising, single point] |  |

Additional results follow:

| SMILES | AC50 [1] | AC50 [2] |
| --- | --- | --- |
| CCOC(=O)C1CCN(C(c2cc(OC)c(OC)c(OC)c2)c2sc3nc(C)nn3c2O)CC1 (configuration not stated) | 32.6 µM [rising, partial curve, poor fit] |  |
| COc1ccc(C(=O)NCc2nnc(SCC(=O)N3CCC(C)CC3)o2)cc1OC | 20.6 µM [rising, partial curve, poor fit] |  |
| Cc1ccc(NC(=S)NC(=O)c2c(-c3ccccc3Cl)noc2C)cc1 | 6.31 µM [falling, single point] |  |
| COc1ccc(/C=C/C=C2\NC(=S)NC2=O)cc1 | 12.6 µM [rising, partial curve] |  |
| CC(C)n1c(SCC(=O)N2CCCC2)nc2c1c(=O)n(C)c(=O)n2C | 7.94 µM [rising, partial curve, poor fit] |  |
| CCOC(=O)c1ccc(COC(=O)CNC(=O)CNC(=O)c2ccc(OC)cc2)o1 | 20.6 µM [rising, partial curve, poor fit] |  |
| O=C(COC(=O)c1n[nH]c2ccccc12)Nc1ccc([N+](=O)[O-])cc1 | 2.06 µM [rising, full curve] |  |
| O=C(c1ccc(Cl)cc1)C1C2C(=O)N(c3ccccc3)C(=O)C2C2CCCN21 (configuration not stated) | 20 µM [falling, partial curve, poor fit] |  |
| O=[N+]([O-])c1cc(C(F)(F)F)ccc1NCCOc1ccccc1 | 2.59 µM [rising, full curve] |  |
| N#Cc1nc(-c2cccs2)oc1NCc1ccccc1 | 6.31 µM [rising, partial curve, poor fit] |  |
| COc1cccc(CNC(=O)Cc2ccc(-n3c(=O)[nH]c4ccccc4c3=O)cc2)c1 | 23.1 µM [rising, single point] | 32.6 µM [falling, partial curve, poor fit] |
| N#Cc1ccc(C(=O)NCC2CCCCC2)cc1 | 11.2 µM [rising, partial curve, poor fit] |  |
| COc1ccc(Cl)cc1NC(=O)c1cnc2sccn2c1=O | 1.3 µM [rising, full curve, poor fit] |  |
| Cn1c(CC(=O)Nc2ccc(F)cc2)c(Sc2ccccc2)c2ccccc21 | 0.82 µM [falling, full curve, poor fit] |  |
| COc1ccc(C2CC(=O)c3cnn(-c4nc(C)cc(C)n4)c3C2)cc1OC (configuration not stated) | 0.316 µM [rising, full curve, poor fit] |  |
| COc1ccc(C2=NN(c3ccc(C(=O)O)cc3)C(c3ccc(OC)c(OC)c3)C2)cc1 (configuration not stated) | 7.94 µM [falling, partial curve] | 35.5 µM [falling, single point] |
| CC(C)N1C(=O)S/C(=C/c2ccc(Sc3nc4ccccc4[nH]3)o2)C1=O | 5.17 µM [rising, full curve, poor fit] |  |
| Cc1ccc(S(=O)(=O)NC(=NCC(=O)O)c2ccc(F)cc2)cc1 | 0.0082 µM [falling, full curve, poor fit] |  |
| COc1ccccc1/C=C/C(=O)OCC(=O)NC(=O)NC1CCCC1 | 13 µM [falling, single point] |  |
